{"source": "PubChem BioAssay AID504834", "about": "(National Center for Advancing Translational Sciences (NCATS), 2011)", "note": "Among all 320,000 compounds or so, about 22,000 (6.9%) were called active. The shares of active, inactive and inconclusive entries below differ from those in the screen. Calls follow the shape of the dose curve; as a rule, active = well fitted inhibition curve with a large enough effect; inconclusive = small, poorly fitted or top-dose-only effect, or another doubt; inactive = no such curve, though single readings can be large or run the other way. Where the call is inconclusive, the potency comes from a doubtful curve fit. Potency is read from the fitted curve at half-maximal effect."}
{"test": "Primary qHTS for delayed death inhibitors of the malarial parasite plastid, 96 hour incubation", "details": "P. falciparum luciferase reporter growth; series mostly up to 28.7 µM", "in_short": "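Cell-based qHTS: luciferase-tagged P. falciparum in erythrocytes (2% hematocrit, 0.05% parasitemia final) incubated with compounds for 96 hours, 37 C, 5% CO2; luciferase detection reagent then added and luminescence measured.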"}
{"smiles": "CCOC(=O)C1(CCOc2ccccc2)CCN(Cc2cccc(F)c2)CC1", "Potency": "inconclusive: 2.33 µM [inhibitor, single point]"}
{"smiles": "O=C(OCC(=O)N1CCc2ccccc21)c1ccccn1", "Potency": "inconclusive: 18.5 µM [inhibitor, single point]"}
{"smiles": "O=C(c1cccc(Br)c1)N1CCN(C(=O)N2CCOCC2)CC1", "Potency": "inactive"}
{"smiles": "N#CCCN(C(=O)COC(=O)c1cc(=O)c2ccccc2o1)c1ccccc1", "Potency": "inconclusive: 13.1 µM [inhibitor, partial curve, poor fit]"}
{"smiles": "c1csc(-c2noc(CN3CCN4CCCC4C3)n2)c1", "note": "(centres undefined)", "Potency": "inconclusive: 10.4 µM [inhibitor, single point]"}
{"smiles": "CCn1c(C)nc2cc(C(=O)NNC(=O)c3ccc(Cl)nc3)ccc21", "Potency": "inactive"}
{"smiles": "C=CCOC(=O)C1=C(C)NC(SCC(=O)Nc2ccc(C)c(Cl)c2)=C(C#N)C1c1ccco1", "note": "(centres undefined)", "Potency": "inconclusive: 2.62 µM [inhibitor, full curve, poor fit]"}
{"smiles": "Cc1ccc(C)c(S(=O)(=O)Nc2ccc3cn[nH]c3c2)c1", "Potency": "inconclusive: 18.5 µM [inhibitor, single point]"}
{"smiles": "O=C(N/N=C/c1ccc([N+](=O)[O-])o1)c1cc2ccccc2o1", "Potency": "inconclusive: 1.47 µM [inhibitor, full curve]"}
{"smiles": "CC(=O)c1cc2c(cc1NC(=O)CCC1CCCC1)OCO2", "Potency": "inconclusive: 16.5 µM [inhibitor, single point]"}
{"smiles": "Cn1c(SCC(=O)c2ccc(F)cc2)nnc1-c1ccccc1N", "Potency": "inconclusive: 0.522 µM [inhibitor, full curve, poor fit]"}
{"smiles": "O/N=C/c1cn(-c2ccccc2)nc1-c1ccc2c(c1)OCCO2", "Potency": "inactive"}
{"smiles": "O=C(CCCSc1nnc(SCCCC(=O)c2ccc(F)cc2)s1)c1ccc(F)cc1", "Potency": "inconclusive: 9.28 µM [inhibitor, partial curve, poor fit]"}
{"smiles": "C/C(=N\\NC(=O)c1n[nH]c2c1CCC2)c1cccs1", "Potency": "inactive"}
{"smiles": "CCN(CC)C(=O)CSc1nnc(SCc2ccc(Cl)cc2)s1", "Potency": "inconclusive: 18.5 µM [inhibitor, single point]"}
{"smiles": "CCN1C(=O)S/C(=C/c2cn(C)c3ccccc23)C1=O", "Potency": "inconclusive: 11.7 µM [inhibitor, partial curve, poor fit]"}
{"smiles": "CC1C(=O)Nc2ccccc2N1C(=O)c1cccc(C(F)(F)F)c1", "note": "(centres undefined)", "Potency": "inconclusive: 11.7 µM [inhibitor, single point]"}
{"smiles": "O=C1CSC(=S)N1c1ccc(F)c(Cl)c1", "Potency": "active: 11.7 µM"}
{"smiles": "COc1cc(C(C(=O)NC2CCCCC2)N(CCN2CCOCC2)C(=O)C2COc3ccccc3O2)cc(OC)c1OC", "note": "(centres undefined)", "Potency": "inactive"}
